These results are taken from the supplement of paper PMC9254222.

The structures appear in SMILES notation. The full ranking holds about 1,100 compounds; the median of “Renilla luciferase signal (cell health) relative to plate median” is about 0.97, and the highest 2% start at about 1.6. The entries are a selection whose mix differs from that of the whole data set.

This test has as its system HEK293T (UBE3A T485A transfected, BAR Wnt reporter). Kind of test: Renilla luciferase signal (cell health) relative to plate median (fold (linear ratio)); higher = higher Renilla signal. The following applies: 24 h. Summed up:
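Using Fugene 6, HEK293T cells in white 384-well plates (4500 cells/well; DMEM, 10% FBS, 37°C, 5% CO2) were transfected with a BAR firefly luciferase Wnt reporter, TK-Renilla and an expression plasmid. After four hours, robots dosed the chemicals at 0.01–100 uM, and a Dual-Glo luciferase readout followed 24 h later. Per-plate median-centred firefly/Renilla ratios gave Wnt activity, while per-plate median-centred raw Renilla signals gave cell health. Four biological replicates were averaged.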

For `CCCCC(CC)CO` (stereo not given) [2-Ethyl-1-hexanol], the Renilla luciferase signal (concentration: 0.1 uM) came to 0.758, the Renilla luciferase signal (concentration: 1 uM) amounted to 0.775, the Renilla luciferase signal (concentration: 10 uM) came to 0.504 and the Renilla luciferase signal (concentration: 100 uM) worked out at 1.25.

Turning to `CCCCCCOCCO` [2-(Hexyloxy)ethanol], the Renilla luciferase signal reads like this: (concentration: 0.1 uM) 0.823; (concentration: 1 uM) 0.921; (concentration: 10 uM) 0.944; (concentration: 100 uM) 1.23.

Consider `CCCCCCCC(=O)OC` [Methyl octanoate], for which the Renilla luciferase signal by setting is: (concentration: 0.1 uM) 1.03; (concentration: 1 uM) 0.911; (concentration: 10 uM) 1.04; (concentration: 100 uM) 1.61.

Turning to `O=c1[nH]c2cc([N+](=O)[O-])c([N+](=O)[O-])cc2[nH]c1=O`, the Renilla luciferase signal (concentration: 100 uM) is 1.96.

`COc1c(N2CC3CCCNC3C2)c(F)cc2c(=O)c(C(=O)O)cn(C3CC3)c12` (stereo not given) [Moxifloxacin]: the Renilla luciferase signal runs as follows: (concentration: 0.01 uM) 0.927; (concentration: 0.1 uM) 0.834; (concentration: 1 uM) 0.851; (concentration: 10 uM) 0.837; (concentration: 100 uM) 0.85.

For the molecule `NC(=O)N(O)[C@@H]1COc2cc(OCc3ccccc3)ccc21`, the Renilla luciferase signal reads like this: (concentration: 0.1 uM) 1.18; (concentration: 1 uM) 1.11; (concentration: 10 uM) 1.11; (concentration: 100 uM) 0.932.

Consider `Nc1nc2nc[nH]c2c(=S)[nH]1` [6-Thioguanine], for which the Renilla luciferase signal (concentration: 0.1 uM) stood at 0.928, the Renilla luciferase signal (concentration: 1 uM) was found to be 0.891, the Renilla luciferase signal (concentration: 10 uM) turned out to be 0.0314 and the Renilla luciferase signal (concentration: 100 uM) came out at 0.0376.

In the case of `c1ccc2ccccc2c1` [Naphthalene], the Renilla luciferase signal runs as follows: (concentration: 0.1 uM) 1.18; (concentration: 1 uM) 1.14; (concentration: 10 uM) 1.33; (concentration: 100 uM) 1.64.

As to `CC1(C)C(=O)N(Br)C(=O)N1Br` [1,3-Dibromo-5,5-dimethylhydantoin], the Renilla luciferase signal is, setting by setting: (concentration: 0.1 uM) 1.46; (concentration: 1 uM) 1.28; (concentration: 10 uM) 1.16; (concentration: 100 uM) 1.02.

For the molecule `C=CCCCCCCCCCCCC` [1-Tetradecene], the Renilla luciferase signal (concentration: 0.1 uM) worked out at 1.14, the Renilla luciferase signal (concentration: 1 uM) was determined as 1.17, the Renilla luciferase signal (concentration: 10 uM) came to 0.992 and the Renilla luciferase signal (concentration: 100 uM) is 1.23.

On to `CCc1nn(C2CCCCC2)c2cc([C@]3(C#N)CC[C@@H](C(=O)O)CC3)ccc12`, for which the Renilla luciferase signal runs as follows: (concentration: 0.1 uM) 0.612; (concentration: 1 uM) 0.739; (concentration: 10 uM) 0.576; (concentration: 100 uM) 0.262.

Turning to `Cc1ccc(N)cc1O` [5-Amino-2-methylphenol], where the note is “concentration: 100 uM”, the Renilla luciferase signal was found to be 1.78.

As for `O=C1NC(=O)C(c2ccccc2)(c2ccccc2)N1` [5,5-Diphenylhydantoin], the Renilla luciferase signal (concentration: 0.1 uM) was 0.874, the Renilla luciferase signal (concentration: 1 uM) came to 0.824, the Renilla luciferase signal (concentration: 10 uM) is 0.927 and the Renilla luciferase signal (concentration: 100 uM) worked out at 0.553.

Consider `CCCCCCC(CCCCCCCCCCC(=O)OCC(COC(C)=O)OC(C)=O)OC(C)=O` (stereo not given) [Grinstad Soft-N-Safe], for which the Renilla luciferase signal runs as follows: (concentration: 0.1 uM) 0.819; (concentration: 1 uM) 0.849; (concentration: 10 uM) 0.893; (concentration: 100 uM) 0.93.

For `CC[C@H](C)C(=O)O[C@H]1C[C@@H](C)C=C2C=C[C@H](C)[C@H](CC[C@@H]3C[C@@H](O)CC(=O)O3)[C@H]21` [Lovastatin], the Renilla luciferase signal amounted to 0.972 (concentration: 0.1 uM), 0.929 (concentration: 1 uM), 1.08 (concentration: 10 uM) and 0.837 (concentration: 100 uM).

For the molecule `Cc1c2ccccc2c(C)c2c1ccc1ccccc12` [7,12-Dimethylbenz(a)anthracene], the Renilla luciferase signal by setting is: (concentration: 0.1 uM) 0.7; (concentration: 1 uM) 0.699; (concentration: 10 uM) 0.269; (concentration: 100 uM) 0.0203.

Regarding `CCCCCCCCCCCCCCO` [1-Tetradecanol], the Renilla luciferase signal is, setting by setting: (concentration: 0.1 uM) 0.93; (concentration: 1 uM) 0.831; (concentration: 10 uM) 0.94; (concentration: 100 uM) 0.92.

Take `CCCc1ccccc1` [Propylbenzene]: the Renilla luciferase signal worked out at 0.797 (concentration: 0.1 uM), 0.829 (concentration: 1 uM), 0.888 (concentration: 10 uM) and 0.989 (concentration: 100 uM).

Take `Cc1ccc(O)cc1` [p-Cresol]: the Renilla luciferase signal (concentration: 0.1 uM) amounted to 0.884, the Renilla luciferase signal (concentration: 1 uM) stood at 0.892, the Renilla luciferase signal (concentration: 10 uM) came to 0.87 and the Renilla luciferase signal (concentration: 100 uM) was 1.05.

Take `Cn1cnc([N+](=O)[O-])c1Sc1ncnc2nc[nH]c12` [Azathioprine]: the Renilla luciferase signal is 0.939 (concentration: 0.1 uM), 0.983 (concentration: 1 uM), 0.605 (concentration: 10 uM) and 0.0481 (concentration: 100 uM).

For the molecule `Cn1cc[nH]c1=S` [Methimazole], under “concentration: 100 uM”, the Renilla luciferase signal was 2.27.

Consider `CN(C)c1ccc(N=NS(=O)(=O)[O-])cc1.[Na+]` [Fenaminosulf], for which the Renilla luciferase signal reads like this: (concentration: 0.1 uM) 0.694; (concentration: 1 uM) 0.672; (concentration: 10 uM) 0.652; (concentration: 100 uM) 0.433.

With `CC1=C(C)S(=O)(=O)CCS1(=O)=O` [Dimethipin], the Renilla luciferase signal stood at 0.84 (concentration: 0.1 uM), 0.785 (concentration: 1 uM), 0.853 (concentration: 10 uM) and 0.224 (concentration: 100 uM).

With `C[C@]12CC[C@@H]3c4ccc(O)cc4CC[C@H]3[C@@H]1CCC2=O` [Estrone], the Renilla luciferase signal reads like this: (concentration: 0.1 uM) 0.871; (concentration: 1 uM) 1.02; (concentration: 10 uM) 0.931; (concentration: 100 uM) 0.71.

Take `CC(=O)S[C@H](C(=O)N[C@H]1Cc2ccccc2[C@H]2CCC[C@@H](C(=O)O)N2C1=O)C(C)C` [Ilepatril]: the Renilla luciferase signal was found to be 0.879 (concentration: 0.1 uM), 0.836 (concentration: 1 uM), 0.857 (concentration: 10 uM) and 1.53 (concentration: 100 uM).

In the case of `OCCNCCO` [Diethanolamine], the Renilla luciferase signal by setting is: (concentration: 0.1 uM) 0.974; (concentration: 1 uM) 0.928; (concentration: 10 uM) 0.967; (concentration: 100 uM) 1.08.

Consider `NC(=O)N/N=C/c1ccc([N+](=O)[O-])o1` [Nitrofurazone], for which the Renilla luciferase signal (concentration: 0.1 uM) was found to be 1.03, the Renilla luciferase signal (concentration: 1 uM) amounted to 1.13, the Renilla luciferase signal (concentration: 10 uM) was found to be 1.44 and the Renilla luciferase signal (concentration: 100 uM) is 0.334.

As for `CCOC(=O)O[C@H](C)OC(=O)c1ccc2c(c1)cc(C(=O)NC1CCN(C(C)C)CC1)n2Cc1cc(-c2ccc(Cl)s2)on1.Cl`, the Renilla luciferase signal by setting is: (concentration: 0.1 uM) 1.22; (concentration: 1 uM) 1.16; (concentration: 10 uM) 1.33; (concentration: 100 uM) 0.031.

As to `C=CCOC(Cn1ccnc1)c1ccc(Cl)cc1Cl` (stereo not given) [Imazalil], the Renilla luciferase signal was found to be 0.797 (concentration: 0.01 uM); 0.885 (concentration: 0.1 uM); 0.939 (concentration: 1 uM); 0.777 (concentration: 10 uM); 0.0667 (concentration: 100 uM).

On to `CC(C)COC(=O)CCCCC(=O)OCC(C)C` [Diisobutyl adipate], for which the Renilla luciferase signal amounted to 1.02 (concentration: 0.1 uM), 0.794 (concentration: 1 uM), 0.992 (concentration: 10 uM) and 1.12 (concentration: 100 uM).

Take `Cc1cc(Nc2cc(N3CCN(C)CC3)nc(Sc3ccc(NC(=O)C4CC4)cc3)n2)n[nH]1`: the Renilla luciferase signal (concentration: 0.01 uM) was 0.642; the Renilla luciferase signal (concentration: 0.1 uM) is 0.649; the Renilla luciferase signal (concentration: 1 uM) was found to be 0.492; the Renilla luciferase signal (concentration: 10 uM) worked out at 0.404; the Renilla luciferase signal (concentration: 100 uM) amounted to 0.0104.

For `CC1=C(/C=C/C(C)=C/C=C/C(C)=C/C(=O)O)C(C)(C)CCC1` [all-trans-Retinoic acid], the Renilla luciferase signal is, setting by setting: (concentration: 0.1 uM) 0.713; (concentration: 1 uM) 0.788; (concentration: 10 uM) 0.682; (concentration: 100 uM) 0.081.

With `O=C(NO)C1(NS(=O)(=O)c2ccc(Oc3ccc(F)cc3)cc2)CCOCC1`, the Renilla luciferase signal is, setting by setting: (concentration: 0.1 uM) 0.742; (concentration: 1 uM) 0.782; (concentration: 10 uM) 0.804; (concentration: 100 uM) 0.169.

On to `O=c1[nH]cnc2c1ncn2[C@H]1CC[C@@H](CO)O1` [2',3'-Dideoxyinosine], for which the Renilla luciferase signal by setting is: (concentration: 0.1 uM) 0.826; (concentration: 1 uM) 0.934; (concentration: 10 uM) 0.911; (concentration: 100 uM) 1.12.
